Data taken from paper PMC7982423.

T1: p110δ with a C-terminal AviTag (p110δ-AviTag) (mouse) (UniProt O35904)
T1 sequence (chain, biotin on the AviTag (biotinylated in vivo by BirA)): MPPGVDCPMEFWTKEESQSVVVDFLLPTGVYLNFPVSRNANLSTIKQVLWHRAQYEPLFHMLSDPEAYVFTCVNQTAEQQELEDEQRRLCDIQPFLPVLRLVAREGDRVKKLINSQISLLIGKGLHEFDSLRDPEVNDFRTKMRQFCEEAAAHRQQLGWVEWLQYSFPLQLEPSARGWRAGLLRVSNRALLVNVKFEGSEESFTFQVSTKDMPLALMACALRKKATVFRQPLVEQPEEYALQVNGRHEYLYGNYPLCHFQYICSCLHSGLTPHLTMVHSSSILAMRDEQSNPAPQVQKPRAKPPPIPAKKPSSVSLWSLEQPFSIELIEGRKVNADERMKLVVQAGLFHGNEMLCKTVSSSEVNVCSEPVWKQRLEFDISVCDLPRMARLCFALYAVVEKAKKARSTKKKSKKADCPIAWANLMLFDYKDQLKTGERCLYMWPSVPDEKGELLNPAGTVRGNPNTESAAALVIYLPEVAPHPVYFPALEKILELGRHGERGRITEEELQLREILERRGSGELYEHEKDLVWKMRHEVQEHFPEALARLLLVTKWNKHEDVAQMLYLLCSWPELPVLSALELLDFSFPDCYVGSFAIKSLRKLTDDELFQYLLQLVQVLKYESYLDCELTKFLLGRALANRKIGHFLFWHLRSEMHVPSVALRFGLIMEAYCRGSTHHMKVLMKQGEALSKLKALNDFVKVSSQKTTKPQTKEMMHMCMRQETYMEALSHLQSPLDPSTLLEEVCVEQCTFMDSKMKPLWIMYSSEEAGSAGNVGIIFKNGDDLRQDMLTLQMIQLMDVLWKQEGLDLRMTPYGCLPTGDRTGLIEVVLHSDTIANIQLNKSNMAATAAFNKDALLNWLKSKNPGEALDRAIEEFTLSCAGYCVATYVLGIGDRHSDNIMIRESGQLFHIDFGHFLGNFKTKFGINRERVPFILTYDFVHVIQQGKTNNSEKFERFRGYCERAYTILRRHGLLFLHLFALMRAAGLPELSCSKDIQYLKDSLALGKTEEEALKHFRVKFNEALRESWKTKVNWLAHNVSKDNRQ


Tests used:
[1] = biological target: T1, p110δ with a C-terminal AviTag (p110δ-AviTag) (mouse); test: affinity purification with mass spectrometry; streptavidin beads capture biotinylated p110δ-AviTag from lysates of naive CD4+ T cells stimulated for 1 min by CD3-CD4-crosslinking (unstimulated cells compared); control purifications from BirA^Tg cells; TMT-labelled nLC-MS/MS, three independent experiments; specific: >1.5-fold enriched, p < 0.05 and not classed as non-specific in blasts
[2] = biological target: T1, p110δ with a C-terminal AviTag (p110δ-AviTag) (mouse); test: affinity purification with mass spectrometry; as a8, naive CD4+ T cells left unstimulated
[3] = biological target: T1, p110δ with a C-terminal AviTag (p110δ-AviTag) (mouse); test: affinity purification with mass spectrometry; streptavidin beads capture biotinylated p110δ-AviTag from lysates of CD4+ T cell blasts stimulated for 1 min by CD3-CD4-crosslinking (unstimulated cells compared); control purifications from BirA^Tg cells; TMT-labelled nLC-MS/MS, three independent experiments; specific: >1.5-fold enriched, p < 0.05
[4] = biological target: T1, p110δ with a C-terminal AviTag (p110δ-AviTag) (mouse); test: affinity purification with mass spectrometry; as a3, CD4+ T cell blasts left unstimulated

binding [1]	binding [3]	Binder	binding [2]	binding [4]
binds	binds	STS-2 (UBASH3A), protein phosphatase (enzyme, UniProt Q3V3E1 1-624) MAAGETQLYAKVSNKLKGRSTPSLLDPLLAMGFPTHTALKALAATGRKTAEAAADWLHGHCNDPSLDDPIPQEYALFLCPTGPLLEKLQEFWRESRRQCAKNRAHEVFPHVTLCDFFTCEDQKVECLYEALRRAGDRILGSFPTLVPLVLHSSISYLGFFINDSPADAIREFAMAFATEAAVLADCTIKPCTKQLHLTLAHKFYPHHQRTLEQLAKAIQPSHSCQWTAALYSRDMRFVHYQTLKALFQYKPQNADELMLSAGDYIFVDPTQQEEASEGWAIGISHRTGCRGFLPENYTERANEADTWVKHRTYTFNLAMDLNSRKDFEASCRGNGEPHTPSMSKSVSSIQALQATISRRGILVVRHGERVDQVFGKSWLQQCTTADGKYYRPDLNFPRSLPRRSNGIKDFENDPPLSSCGIFQARLAGEALLDSGVRVTAVFASPALRCVQTAKHILEELKLEKKLKIRVEPGIFEWMKWEASKATLTFLTLEELKEANFNVDLDYRPALPRCSLMPAESYDQYVERCAVSMGQIINTCPQDMGITLIVSHSSALDSCTRPLLGLPPRECGDFAQLVRKIPSLGMCFCEENREDGKWDLVNPPVKTLTHGANSVFNWRNWISSN	no binding (only cells without TCR stimulation)	no binding (only cells without TCR stimulation)
binds	binds	CD5 (transmembrane receptor) (receptor, UniProt P13379 24-494) QSGRGGLDIQVMLSGSNSKCQGQVEIQMENKWKTVCSSSWRLSQDHSKNAQQASAVCKQLRCGDPLALGPFPSLNRPQNQVFCQGSPWSISNCNNTSSQDQCLPLSLICLEPQRTTPPPTTTPPTTVPEPTAPPRLQLVPGHEGLRCTGVVEFYNGSWGGTILYKAKDRPLGLGNLICKSLQCGSFLTHLSGTEAAGTPAPAELRDPRPLPIRWEAPNGSCVSLQQCFQKTTAQEGGQALTVICSDFQPKVQSRLVGGSSVCEGIAEVRQRSQWEALCDSSAARGRGRWEELCREQQCGDLISFHTVDADKTSPGFLCAQEKLSQCYHLQKKKHCNKRVFVTCQDPNPAGLAPGTVASIILTLVLLVVLLAMCGPLVYKKLVKKFRQKKQRQWIGPTGVNQNMSFHRSHTATVRSQVENPTASHVDNEYSQPPRNSHLSAYPALEGALHRSSTQPDNSSDSDYDLQVAQRL	no binding (only cells without TCR stimulation)	no binding (only cells without TCR stimulation)
binds	binds	GAB3 (Gab-family adaptor protein) (protein, UniProt Q8BSM5 1-595) MSTGDTVCMGWLIKSPPERKLQRYAWRKRWFVLRRGRMSGNPDVLEYYRNKHSNKPIRVIDLSECTVWKHAGPGFIRKEFQKNFVFIVKTTSRTFYLVAKTEEEMQVWVHSISQVCNFSHLEDGADSMESLSHMPSSFQPSPASSLHTVHVANSALLKDDRNTNSVVTEETRRESEFLFLPDYLILSNCETGRLHHASLPTRCDSWSNSNHSLAQTSFDDVFLDGLQPFISNNLVHPLHHGKVSQDFPSIRPQASLIWNREINGPSRNLMSSSPLLESSLNPTVHVEEKQVSLPSGVKELNIMSNTPPPRPPKPSYLSEQRQDQPLLTGHSSNKKPGYTMVPRRISLSGLDHVGSWKGDVQSQSLRHRDKRLSLNLPCKFSPIYPTASPSAEDSYVPMSPKGTASELRPHCSQDDYIPMSSSMLPELPADLEPPPVNRNLKPQRKSRPPPLDSRNLSTIQEHTSLTRTYTVPCNRTSFLSPQRNGINCARLFSTPSEEEEEEEEEEEEEEEEEKYIQMEEYGTVSSLSRSALSWTKKFSLDYLALDFNSTSPAPVQKKLLLSEEQRVDYVQVDEQKTQALRSTKQEWTDERQSKV	no binding (only cells without TCR stimulation)	no binding (only cells without TCR stimulation)

Results are given in words; binding and its absence hold for the method and conditions named. Binding seen in cells or lysates may run through a third protein. A yes stands for co-enrichment or nearness to the bait. Other partners may have been found. For part of these data: A no says only that the protein was not detected with the bait. Where a sequence is shown, tags or fusion partners need not be part of it.
